# Laboratory results reported in the supplement of paper PMC6411743.
# ± gives the standard deviation of the averaged measurements. The entries are a selection whose mix differs from that of the whole data set.
# Key:
# Assay in all cases: NP40-soluble protein abundance relative to vehicle (solubility fold change) (ratio); higher = more soluble protein in presence of AMP-PNP
# PPM1F = target: T1, PPM1F (UniProt P49593)
# T1 sequence (whole entry): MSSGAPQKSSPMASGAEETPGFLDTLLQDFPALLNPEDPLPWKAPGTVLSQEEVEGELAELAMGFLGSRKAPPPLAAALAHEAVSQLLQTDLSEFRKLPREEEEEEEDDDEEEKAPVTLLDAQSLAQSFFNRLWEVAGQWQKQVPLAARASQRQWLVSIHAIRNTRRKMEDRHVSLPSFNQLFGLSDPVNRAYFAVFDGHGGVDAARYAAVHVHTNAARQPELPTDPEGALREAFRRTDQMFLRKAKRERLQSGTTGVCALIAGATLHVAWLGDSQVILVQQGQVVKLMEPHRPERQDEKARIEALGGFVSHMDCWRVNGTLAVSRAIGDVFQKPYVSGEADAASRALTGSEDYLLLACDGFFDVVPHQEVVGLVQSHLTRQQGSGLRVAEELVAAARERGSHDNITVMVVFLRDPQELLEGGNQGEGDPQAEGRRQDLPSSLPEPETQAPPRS
# In short: (§1)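 Eight concentrations, 0.1 to 10 mM, were tested on Jurkat crude lysate for 10 min at room temperature and then 3 min at 37 °C, in three independent experiments. The lysate was solubilised with 0.8% NP40 and benzonase, ultracentrifuged, and the supernatant TMT-labelled for LC-MS/MS. Each value is the fold change against the detergent-processed vehicle in its own replicate, from vsn-normalised intensities.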
# RAB9A = target: T2, RAB9A (UniProt P51151)
# T2 sequence (whole entry): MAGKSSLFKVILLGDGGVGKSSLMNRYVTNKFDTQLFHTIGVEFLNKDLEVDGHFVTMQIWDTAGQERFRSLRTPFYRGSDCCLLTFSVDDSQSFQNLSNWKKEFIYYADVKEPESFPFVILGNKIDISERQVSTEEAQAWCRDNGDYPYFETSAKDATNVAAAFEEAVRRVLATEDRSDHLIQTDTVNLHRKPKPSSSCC
# In short: as §1
# SEC24C = target: T3, SEC24C (UniProt P53992)
# T3 sequence (whole entry): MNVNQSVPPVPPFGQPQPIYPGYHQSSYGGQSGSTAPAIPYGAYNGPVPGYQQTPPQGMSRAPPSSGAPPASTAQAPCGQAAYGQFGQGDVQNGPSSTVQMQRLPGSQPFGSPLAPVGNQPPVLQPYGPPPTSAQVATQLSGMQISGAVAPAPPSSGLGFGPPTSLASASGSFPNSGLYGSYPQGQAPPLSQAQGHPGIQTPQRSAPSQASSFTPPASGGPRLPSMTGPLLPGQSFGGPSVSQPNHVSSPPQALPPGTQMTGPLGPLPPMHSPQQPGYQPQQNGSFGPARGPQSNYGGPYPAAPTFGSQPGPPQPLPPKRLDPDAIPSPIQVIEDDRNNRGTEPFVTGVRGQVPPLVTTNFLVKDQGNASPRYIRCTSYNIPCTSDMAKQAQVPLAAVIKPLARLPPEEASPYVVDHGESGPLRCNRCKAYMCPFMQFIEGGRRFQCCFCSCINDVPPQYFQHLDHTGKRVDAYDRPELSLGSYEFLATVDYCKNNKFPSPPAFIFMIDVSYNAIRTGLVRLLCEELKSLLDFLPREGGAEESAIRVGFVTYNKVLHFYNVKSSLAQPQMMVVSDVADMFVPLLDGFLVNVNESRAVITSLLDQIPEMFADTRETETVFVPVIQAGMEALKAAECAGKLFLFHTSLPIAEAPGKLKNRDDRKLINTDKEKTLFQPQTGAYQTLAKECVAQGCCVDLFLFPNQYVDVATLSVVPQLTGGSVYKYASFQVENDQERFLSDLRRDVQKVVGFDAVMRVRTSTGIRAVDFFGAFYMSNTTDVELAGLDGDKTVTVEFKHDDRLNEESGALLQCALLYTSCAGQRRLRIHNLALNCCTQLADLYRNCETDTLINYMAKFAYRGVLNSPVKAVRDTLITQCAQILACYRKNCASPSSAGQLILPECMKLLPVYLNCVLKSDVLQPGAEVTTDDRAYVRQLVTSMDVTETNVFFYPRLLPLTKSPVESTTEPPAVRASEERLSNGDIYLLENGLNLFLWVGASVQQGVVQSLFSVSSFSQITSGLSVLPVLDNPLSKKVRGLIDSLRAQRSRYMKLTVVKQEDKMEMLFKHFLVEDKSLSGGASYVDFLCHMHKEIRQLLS
# In short: as §1
# SLC12A2 = target: T4, SLC12A2 (UniProt P55011)
# T4 sequence (whole entry): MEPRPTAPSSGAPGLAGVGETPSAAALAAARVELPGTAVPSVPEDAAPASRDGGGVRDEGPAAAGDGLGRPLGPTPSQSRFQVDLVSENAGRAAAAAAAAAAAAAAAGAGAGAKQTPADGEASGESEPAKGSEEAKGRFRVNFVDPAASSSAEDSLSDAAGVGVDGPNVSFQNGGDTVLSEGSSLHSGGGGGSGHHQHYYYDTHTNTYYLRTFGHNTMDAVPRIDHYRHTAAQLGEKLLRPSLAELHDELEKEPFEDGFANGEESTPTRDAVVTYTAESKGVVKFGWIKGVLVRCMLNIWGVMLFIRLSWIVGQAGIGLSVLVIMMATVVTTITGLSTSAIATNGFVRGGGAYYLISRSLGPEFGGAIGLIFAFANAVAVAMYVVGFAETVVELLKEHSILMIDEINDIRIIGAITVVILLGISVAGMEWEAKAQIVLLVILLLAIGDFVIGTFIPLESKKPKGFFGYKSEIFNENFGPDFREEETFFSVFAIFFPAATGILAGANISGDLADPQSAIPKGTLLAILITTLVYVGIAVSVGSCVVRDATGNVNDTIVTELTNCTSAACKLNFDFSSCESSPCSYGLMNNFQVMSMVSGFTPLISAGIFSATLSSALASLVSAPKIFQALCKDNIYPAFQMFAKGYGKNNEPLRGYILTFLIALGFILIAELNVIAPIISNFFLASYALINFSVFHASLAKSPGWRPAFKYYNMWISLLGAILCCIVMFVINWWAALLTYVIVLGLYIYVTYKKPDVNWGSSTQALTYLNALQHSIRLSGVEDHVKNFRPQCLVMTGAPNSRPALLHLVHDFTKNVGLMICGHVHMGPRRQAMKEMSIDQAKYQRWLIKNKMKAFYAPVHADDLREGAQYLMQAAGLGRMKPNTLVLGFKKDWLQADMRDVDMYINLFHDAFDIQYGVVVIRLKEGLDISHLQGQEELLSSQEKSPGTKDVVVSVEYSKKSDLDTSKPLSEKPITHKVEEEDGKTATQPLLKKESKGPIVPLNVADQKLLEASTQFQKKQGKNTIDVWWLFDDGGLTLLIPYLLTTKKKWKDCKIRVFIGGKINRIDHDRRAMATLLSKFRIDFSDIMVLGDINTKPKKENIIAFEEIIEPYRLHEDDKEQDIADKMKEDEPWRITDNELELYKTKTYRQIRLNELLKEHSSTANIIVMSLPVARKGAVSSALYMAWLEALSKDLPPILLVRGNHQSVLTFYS
# In short: as §1
# TMED10 = target: T5, TMED10 (UniProt P49755)
# T5 sequence (whole entry): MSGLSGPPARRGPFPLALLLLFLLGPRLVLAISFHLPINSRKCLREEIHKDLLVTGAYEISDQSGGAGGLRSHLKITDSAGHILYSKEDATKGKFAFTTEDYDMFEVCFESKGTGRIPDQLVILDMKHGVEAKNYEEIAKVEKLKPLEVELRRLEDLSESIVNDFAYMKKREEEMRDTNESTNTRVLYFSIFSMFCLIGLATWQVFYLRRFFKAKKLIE
# In short: as §1
# UQCRFS1 = target: T6, UQCRFS1 (UniProt P47985)
# T6 sequence (whole entry): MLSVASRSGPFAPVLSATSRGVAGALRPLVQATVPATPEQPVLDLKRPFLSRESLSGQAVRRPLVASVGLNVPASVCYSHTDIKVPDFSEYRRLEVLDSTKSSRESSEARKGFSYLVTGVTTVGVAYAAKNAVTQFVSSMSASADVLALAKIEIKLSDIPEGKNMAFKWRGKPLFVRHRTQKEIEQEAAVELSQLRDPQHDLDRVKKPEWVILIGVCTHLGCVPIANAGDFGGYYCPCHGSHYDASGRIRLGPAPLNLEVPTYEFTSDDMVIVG
# In short: as §1
smiles,measurement,setting,value
Nc1ncnc2c1ncn2[C@@H]1O[C@H](COP(=O)(O)OP(=O)(O)NP(=O)(O)O)[C@@H](O)[C@H]1O [adenylyl imidodiphosphate],NP40-soluble protein abundance,PPM1F; concentration: 2mM,1.019 ± 0.0062
same,NP40-soluble protein abundance,PPM1F; concentration: 4mM,1.03 ± 0.011
same,NP40-soluble protein abundance,PPM1F; concentration: 6mM,1.014 ± 0.0081
same,NP40-soluble protein abundance,PPM1F; concentration: 8mM,1.02 ± 0.013
same,NP40-soluble protein abundance,PPM1F; concentration: 10mM,1.04 ± 0.018
same,NP40-soluble protein abundance,RAB9A; concentration: 1mM,0.989 ± 0.035
same,NP40-soluble protein abundance,RAB9A; concentration: 2mM,0.957 ± 0.045
same,NP40-soluble protein abundance,RAB9A; concentration: 4mM,0.979 ± 0.017
same,NP40-soluble protein abundance,RAB9A; concentration: 6mM,1 ± 0.045
same,NP40-soluble protein abundance,RAB9A; concentration: 8mM,0.96 ± 0.032
same,NP40-soluble protein abundance,RAB9A; concentration: 10mM,0.9608 ± 0.0061
same,NP40-soluble protein abundance,SEC24C; concentration: 1mM,0.973 ± 0.025
same,NP40-soluble protein abundance,SEC24C; concentration: 2mM,0.921 ± 0.05
same,NP40-soluble protein abundance,SEC24C; concentration: 4mM,0.9789 ± 0.0097
same,NP40-soluble protein abundance,SEC24C; concentration: 6mM,0.985 ± 0.05
same,NP40-soluble protein abundance,SEC24C; concentration: 8mM,0.9994 ± 0.0051
same,NP40-soluble protein abundance,SEC24C; concentration: 10mM,0.9523 ± 0.0086
same,NP40-soluble protein abundance,SLC12A2; concentration: 1mM,1.01 ± 0.017
same,NP40-soluble protein abundance,SLC12A2; concentration: 2mM,1.02 ± 0.012
same,NP40-soluble protein abundance,SLC12A2; concentration: 4mM,1.02 ± 0.035
same,NP40-soluble protein abundance,SLC12A2; concentration: 6mM,0.974 ± 0.037
same,NP40-soluble protein abundance,SLC12A2; concentration: 8mM,0.959 ± 0.042
same,NP40-soluble protein abundance,SLC12A2; concentration: 10mM,0.972 ± 0.05
same,NP40-soluble protein abundance,TMED10; concentration: 1mM,1.03 ± 0.048
same,NP40-soluble protein abundance,TMED10; concentration: 2mM,0.992 ± 0.06
same,NP40-soluble protein abundance,TMED10; concentration: 4mM,0.985 ± 0.028
same,NP40-soluble protein abundance,TMED10; concentration: 6mM,0.985 ± 0.041
same,NP40-soluble protein abundance,TMED10; concentration: 8mM,0.974 ± 0.042
same,NP40-soluble protein abundance,TMED10; concentration: 10mM,0.997 ± 0.097
same,NP40-soluble protein abundance,UQCRFS1; concentration: 1mM,1.02 ± 0.054
same,NP40-soluble protein abundance,UQCRFS1; concentration: 2mM,0.954 ± 0.026
same,NP40-soluble protein abundance,UQCRFS1; concentration: 4mM,0.974 ± 0.057

# 2 entries picked at random from those above:
smiles,measurement,setting,value
Nc1ncnc2c1ncn2[C@@H]1O[C@H](COP(=O)(O)OP(=O)(O)NP(=O)(O)O)[C@@H](O)[C@H]1O [adenylyl imidodiphosphate],NP40-soluble protein abundance,SEC24C; concentration: 8mM,0.9994 ± 0.0051
same,NP40-soluble protein abundance,SLC12A2; concentration: 1mM,1.01 ± 0.017
